Laboratory results as given in paper PMC2691592.
Results are given in words; binding and its absence hold for the method and conditions named. Binding seen in cells or lysates may run through a third protein. Some entries that bind do so weakly or less than the wild type.

Protein sequences, listed by entry. Tags and fused reporters are not part of them. Residues count along the entry.
UniProt P34545, residues 1-1620: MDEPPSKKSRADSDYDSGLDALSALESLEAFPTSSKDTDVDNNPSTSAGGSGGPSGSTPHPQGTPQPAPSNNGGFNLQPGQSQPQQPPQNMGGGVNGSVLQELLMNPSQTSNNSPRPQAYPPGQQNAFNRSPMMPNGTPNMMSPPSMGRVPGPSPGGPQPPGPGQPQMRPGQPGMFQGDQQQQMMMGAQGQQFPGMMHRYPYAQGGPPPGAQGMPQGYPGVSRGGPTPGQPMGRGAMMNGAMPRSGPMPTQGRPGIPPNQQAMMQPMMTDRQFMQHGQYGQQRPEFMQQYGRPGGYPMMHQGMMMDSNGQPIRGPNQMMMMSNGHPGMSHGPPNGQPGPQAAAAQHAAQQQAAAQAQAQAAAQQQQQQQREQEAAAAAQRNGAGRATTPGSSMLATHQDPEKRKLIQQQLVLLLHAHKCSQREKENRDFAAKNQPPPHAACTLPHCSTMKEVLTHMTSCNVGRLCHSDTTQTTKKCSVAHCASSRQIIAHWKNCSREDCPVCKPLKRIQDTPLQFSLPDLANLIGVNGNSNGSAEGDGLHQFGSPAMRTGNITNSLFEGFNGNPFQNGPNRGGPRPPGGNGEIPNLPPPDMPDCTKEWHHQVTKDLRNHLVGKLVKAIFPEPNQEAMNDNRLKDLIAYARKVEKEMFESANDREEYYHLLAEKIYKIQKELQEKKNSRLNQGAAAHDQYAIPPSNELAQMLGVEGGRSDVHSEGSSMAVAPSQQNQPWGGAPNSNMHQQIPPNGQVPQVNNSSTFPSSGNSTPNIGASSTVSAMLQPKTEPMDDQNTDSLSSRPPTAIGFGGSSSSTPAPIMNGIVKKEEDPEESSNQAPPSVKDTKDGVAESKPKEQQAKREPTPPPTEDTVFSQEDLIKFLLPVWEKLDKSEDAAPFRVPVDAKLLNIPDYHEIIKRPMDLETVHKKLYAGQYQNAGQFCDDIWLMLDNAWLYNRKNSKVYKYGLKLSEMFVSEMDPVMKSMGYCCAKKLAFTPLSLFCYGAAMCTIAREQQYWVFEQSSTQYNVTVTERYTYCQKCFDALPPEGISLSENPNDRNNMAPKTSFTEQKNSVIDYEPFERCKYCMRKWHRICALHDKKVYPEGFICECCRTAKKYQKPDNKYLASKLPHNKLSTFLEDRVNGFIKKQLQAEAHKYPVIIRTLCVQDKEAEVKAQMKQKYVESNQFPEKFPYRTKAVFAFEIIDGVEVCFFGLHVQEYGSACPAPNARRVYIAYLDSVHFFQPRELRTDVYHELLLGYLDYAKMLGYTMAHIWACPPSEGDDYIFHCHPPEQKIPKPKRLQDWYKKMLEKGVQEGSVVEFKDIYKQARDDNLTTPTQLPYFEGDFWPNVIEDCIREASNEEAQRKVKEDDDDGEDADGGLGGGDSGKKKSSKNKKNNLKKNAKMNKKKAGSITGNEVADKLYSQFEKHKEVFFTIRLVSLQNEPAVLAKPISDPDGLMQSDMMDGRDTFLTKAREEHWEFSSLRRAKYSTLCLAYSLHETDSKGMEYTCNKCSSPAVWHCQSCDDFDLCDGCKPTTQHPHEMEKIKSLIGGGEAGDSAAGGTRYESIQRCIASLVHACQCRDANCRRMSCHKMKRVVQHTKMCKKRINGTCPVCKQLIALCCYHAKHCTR
UniProt P46580: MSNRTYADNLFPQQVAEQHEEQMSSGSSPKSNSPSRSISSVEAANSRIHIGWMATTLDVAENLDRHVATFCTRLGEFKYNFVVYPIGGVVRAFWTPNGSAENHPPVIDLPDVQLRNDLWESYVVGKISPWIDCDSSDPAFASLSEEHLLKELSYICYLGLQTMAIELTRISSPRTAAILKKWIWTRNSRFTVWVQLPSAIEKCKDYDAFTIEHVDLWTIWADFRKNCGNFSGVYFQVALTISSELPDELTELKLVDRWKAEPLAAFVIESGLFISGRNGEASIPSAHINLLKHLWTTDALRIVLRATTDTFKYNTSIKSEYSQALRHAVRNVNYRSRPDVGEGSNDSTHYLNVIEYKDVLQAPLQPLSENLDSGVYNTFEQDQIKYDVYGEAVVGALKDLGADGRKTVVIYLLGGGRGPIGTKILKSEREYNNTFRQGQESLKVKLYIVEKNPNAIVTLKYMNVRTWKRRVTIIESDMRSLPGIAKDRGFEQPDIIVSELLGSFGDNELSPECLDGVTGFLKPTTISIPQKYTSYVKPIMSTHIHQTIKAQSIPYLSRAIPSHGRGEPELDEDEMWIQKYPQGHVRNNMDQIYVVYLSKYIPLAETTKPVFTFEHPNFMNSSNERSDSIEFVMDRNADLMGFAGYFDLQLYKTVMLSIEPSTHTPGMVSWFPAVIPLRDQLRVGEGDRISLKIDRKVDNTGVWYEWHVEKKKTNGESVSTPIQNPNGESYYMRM

Molecular target: Flag-CBP-1(1–1620) (C. elegans) (UniProt P34545)
Assay: co-IP; Flag- and Myc-tagged worm proteins co-expressed in HEK293 cells; lysis in 50 mM Tris pH 8.0, 150 mM NaCl, 0.5% sodium deoxycholate, 1% Triton X-100; anti-Flag (M2) agarose beads more than 2 h at 4°C; Western blot

Substance: Myc-PRMT-5 (from UniProt P46580 1-734) (enzyme)
- binding: binds
